From paper PMC6614809 come the findings set out here.

Sequences of proteins named here, by UniProt entry; tags and fusion partners are left off.
UniProt Q08562: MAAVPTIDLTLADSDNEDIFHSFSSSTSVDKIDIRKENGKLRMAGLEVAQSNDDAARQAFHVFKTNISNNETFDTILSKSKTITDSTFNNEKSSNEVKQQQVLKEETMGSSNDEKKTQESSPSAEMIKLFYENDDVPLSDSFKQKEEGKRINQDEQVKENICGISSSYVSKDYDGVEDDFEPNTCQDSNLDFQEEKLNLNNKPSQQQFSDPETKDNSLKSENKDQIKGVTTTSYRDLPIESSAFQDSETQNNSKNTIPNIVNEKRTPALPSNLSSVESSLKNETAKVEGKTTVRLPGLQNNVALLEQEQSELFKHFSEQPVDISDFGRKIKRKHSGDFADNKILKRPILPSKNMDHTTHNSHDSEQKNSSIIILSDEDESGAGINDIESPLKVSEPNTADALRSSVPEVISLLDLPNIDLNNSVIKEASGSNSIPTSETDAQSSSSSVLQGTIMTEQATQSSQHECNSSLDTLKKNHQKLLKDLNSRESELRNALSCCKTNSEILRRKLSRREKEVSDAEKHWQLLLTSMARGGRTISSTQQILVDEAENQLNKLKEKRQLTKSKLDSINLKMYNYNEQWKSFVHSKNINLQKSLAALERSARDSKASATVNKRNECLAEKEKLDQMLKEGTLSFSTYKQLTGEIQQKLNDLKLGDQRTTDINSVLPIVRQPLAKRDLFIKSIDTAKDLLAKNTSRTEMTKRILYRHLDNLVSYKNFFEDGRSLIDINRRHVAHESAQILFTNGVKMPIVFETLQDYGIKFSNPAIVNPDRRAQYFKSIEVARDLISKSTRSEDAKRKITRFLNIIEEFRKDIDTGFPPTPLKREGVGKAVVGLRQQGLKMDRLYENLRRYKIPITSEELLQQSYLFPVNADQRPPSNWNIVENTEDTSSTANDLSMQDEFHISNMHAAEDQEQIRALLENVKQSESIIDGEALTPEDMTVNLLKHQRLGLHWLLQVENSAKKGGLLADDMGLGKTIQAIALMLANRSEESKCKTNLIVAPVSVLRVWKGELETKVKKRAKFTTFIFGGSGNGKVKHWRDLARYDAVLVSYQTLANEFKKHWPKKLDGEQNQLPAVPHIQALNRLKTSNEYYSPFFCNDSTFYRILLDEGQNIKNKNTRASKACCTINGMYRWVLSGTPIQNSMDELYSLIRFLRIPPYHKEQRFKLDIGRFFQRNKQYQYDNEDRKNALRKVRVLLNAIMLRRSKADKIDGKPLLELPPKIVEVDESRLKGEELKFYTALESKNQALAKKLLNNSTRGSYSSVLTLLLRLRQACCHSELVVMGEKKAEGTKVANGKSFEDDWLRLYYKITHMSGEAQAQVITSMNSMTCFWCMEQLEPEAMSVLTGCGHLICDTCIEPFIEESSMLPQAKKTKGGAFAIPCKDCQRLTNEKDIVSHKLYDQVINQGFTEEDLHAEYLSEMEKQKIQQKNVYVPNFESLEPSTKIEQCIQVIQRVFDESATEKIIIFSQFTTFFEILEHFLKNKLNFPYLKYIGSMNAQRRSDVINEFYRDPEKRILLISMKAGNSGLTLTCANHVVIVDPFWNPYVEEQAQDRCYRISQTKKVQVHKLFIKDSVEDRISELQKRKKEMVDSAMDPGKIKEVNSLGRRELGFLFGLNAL

The target in the assay is T1, Full-length Top2, yeast two-hybrid fusion (budding yeast (S. cerevisiae)) (UniProt P06786).
T1 sequence: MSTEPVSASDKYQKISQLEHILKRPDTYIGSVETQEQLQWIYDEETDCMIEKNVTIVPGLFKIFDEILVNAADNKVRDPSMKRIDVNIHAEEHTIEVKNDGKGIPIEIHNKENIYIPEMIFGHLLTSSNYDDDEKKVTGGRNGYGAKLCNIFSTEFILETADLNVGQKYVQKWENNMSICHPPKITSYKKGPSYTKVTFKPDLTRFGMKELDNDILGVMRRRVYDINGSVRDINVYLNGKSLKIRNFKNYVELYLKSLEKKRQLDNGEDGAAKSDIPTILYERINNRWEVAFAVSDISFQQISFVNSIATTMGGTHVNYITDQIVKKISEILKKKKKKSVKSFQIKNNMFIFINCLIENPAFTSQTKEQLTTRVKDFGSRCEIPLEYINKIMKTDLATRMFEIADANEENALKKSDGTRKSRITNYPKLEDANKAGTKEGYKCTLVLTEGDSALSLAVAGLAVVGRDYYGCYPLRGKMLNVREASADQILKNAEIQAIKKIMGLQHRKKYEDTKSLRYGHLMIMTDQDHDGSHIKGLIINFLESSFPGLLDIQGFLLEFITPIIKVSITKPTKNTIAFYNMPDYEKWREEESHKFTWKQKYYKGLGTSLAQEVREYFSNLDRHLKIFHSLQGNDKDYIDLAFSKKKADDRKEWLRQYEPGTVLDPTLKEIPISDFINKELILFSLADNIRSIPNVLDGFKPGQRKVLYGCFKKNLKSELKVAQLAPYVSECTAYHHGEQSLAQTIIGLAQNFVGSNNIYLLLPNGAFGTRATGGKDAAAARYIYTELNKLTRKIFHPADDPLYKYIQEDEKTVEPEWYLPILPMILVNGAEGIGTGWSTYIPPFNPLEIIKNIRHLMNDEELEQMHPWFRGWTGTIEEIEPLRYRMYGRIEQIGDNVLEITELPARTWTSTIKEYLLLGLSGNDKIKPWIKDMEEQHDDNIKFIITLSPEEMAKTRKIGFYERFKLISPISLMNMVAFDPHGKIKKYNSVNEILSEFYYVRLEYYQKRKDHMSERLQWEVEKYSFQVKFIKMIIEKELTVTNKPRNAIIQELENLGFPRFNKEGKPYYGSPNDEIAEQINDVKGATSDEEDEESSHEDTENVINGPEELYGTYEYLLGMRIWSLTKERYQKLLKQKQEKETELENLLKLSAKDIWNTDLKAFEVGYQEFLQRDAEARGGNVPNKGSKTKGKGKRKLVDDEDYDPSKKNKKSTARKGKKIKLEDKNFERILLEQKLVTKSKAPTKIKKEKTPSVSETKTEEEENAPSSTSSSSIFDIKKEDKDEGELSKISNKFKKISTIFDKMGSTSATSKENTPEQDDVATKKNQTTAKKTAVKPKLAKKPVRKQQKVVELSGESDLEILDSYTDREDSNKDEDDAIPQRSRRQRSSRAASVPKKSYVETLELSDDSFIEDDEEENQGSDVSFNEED
Kind of assay: two-hybrid; Gal4 activator domain (pOAD) and Gal4 binding domain (pOBD) plasmids in yeast; growth on -LWH plates with 5 mM 3-Amino-1,2,4-triazole, control -LW plates.

These are yes or no findings as the source states them, for the method shown. Some entries that bind do so weakly or less than the wild type. Tags and fused reporters may be left off the sequences shown.

For the substance “Full length Uls1 (HFP136), yeast two-hybrid fusion (from UniProt Q08562 1-1619) (enzyme)”, the binding result was “binds weakly”.
